# Experimental data as given in patent EP0403172A2, “Purified enzyme and process therefor” (OKLAHOMA STATE UNIVERSITY, priority 1989, dated 1990).
# At least one structure is not confirmed: it was looked up by name or label, or the drawing left a doubt.
# Target: T1, isopenicillin N epimerase (Streptomyces clavuligerus, UniProt P18549)
# T1 construct: Approximately 250 g of frozen whole cells of S. clavuligerus were thawed and homogenated; made in house; host or cells: Streptomyces clavuligerus NRRL 18491 (native producer; the endogenous enzyme was purified from cell-free extract, not made recombinantly)
# T1 sequence (P18549 1-398): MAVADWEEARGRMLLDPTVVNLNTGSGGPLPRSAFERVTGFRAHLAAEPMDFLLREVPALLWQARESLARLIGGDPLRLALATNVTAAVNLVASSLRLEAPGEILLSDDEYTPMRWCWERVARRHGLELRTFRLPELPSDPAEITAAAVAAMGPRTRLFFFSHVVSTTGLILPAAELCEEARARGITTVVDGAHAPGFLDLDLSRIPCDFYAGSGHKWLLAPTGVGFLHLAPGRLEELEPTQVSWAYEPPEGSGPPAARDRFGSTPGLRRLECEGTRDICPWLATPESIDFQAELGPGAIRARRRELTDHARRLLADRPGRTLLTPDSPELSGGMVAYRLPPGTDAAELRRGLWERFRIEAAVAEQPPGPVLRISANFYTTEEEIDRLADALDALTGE
# Assay: Epimerase activity assay (product formation from isopenicillin N / penicillin N, quantitated by HPLC after o-phthaldialdehyde derivatization)
# Format: biochemical
# Conditions: Table 4, compound at 1 mM
# Description: The epimerase activity was determined by the product formation using isopenicillin N and penicillin N as substrates. Formation of isopenicillin N and penicillin N was quantitated by HPLC. […] The reaction mixture was incubated at 37°C for 20 min. The reaction was terminated by placing the reaction vessel in boiling water for 10 min, immediately cooling the reaction mixture with ice, and then filtering the cold mixture through a 0.45 µm filter.
# The derivatives were then analyzed by HPLC. The assay samples were prepared for HPLC as follows. The assay filtrate, obtained as described above, 20 µl was mixed with 5 µl of a derivatizing reagent consisting of 4 mg of o-phthaldialdehyde dissolved in 300 µl of methanol, 250 µl of 0.4 M sodium borate, pH 9.4, 390 µl of water and 60 µl of 1 M N-acetyl-L-cysteine, adjusted to pH 5-6 with sodium hydroxide. After a 2 min reaction time, 200 µl of 50 mM sodium acetate, pH 5.0, were added to the mixture and 50 µl aliquots were used for HPLC analysis.
structure (smiles),measurement,value
O=C1O[C@H]([C@@H](O)CO)C(O)=C1O [Ascorbate],Activity,170 µmol/min/mL
